From US20050119456A1 come the findings set out here.

Chains of the proteins cited; added tags and fusions are not shown. Residues count along the entry.
UniProt Q9Y618, residues 1-900: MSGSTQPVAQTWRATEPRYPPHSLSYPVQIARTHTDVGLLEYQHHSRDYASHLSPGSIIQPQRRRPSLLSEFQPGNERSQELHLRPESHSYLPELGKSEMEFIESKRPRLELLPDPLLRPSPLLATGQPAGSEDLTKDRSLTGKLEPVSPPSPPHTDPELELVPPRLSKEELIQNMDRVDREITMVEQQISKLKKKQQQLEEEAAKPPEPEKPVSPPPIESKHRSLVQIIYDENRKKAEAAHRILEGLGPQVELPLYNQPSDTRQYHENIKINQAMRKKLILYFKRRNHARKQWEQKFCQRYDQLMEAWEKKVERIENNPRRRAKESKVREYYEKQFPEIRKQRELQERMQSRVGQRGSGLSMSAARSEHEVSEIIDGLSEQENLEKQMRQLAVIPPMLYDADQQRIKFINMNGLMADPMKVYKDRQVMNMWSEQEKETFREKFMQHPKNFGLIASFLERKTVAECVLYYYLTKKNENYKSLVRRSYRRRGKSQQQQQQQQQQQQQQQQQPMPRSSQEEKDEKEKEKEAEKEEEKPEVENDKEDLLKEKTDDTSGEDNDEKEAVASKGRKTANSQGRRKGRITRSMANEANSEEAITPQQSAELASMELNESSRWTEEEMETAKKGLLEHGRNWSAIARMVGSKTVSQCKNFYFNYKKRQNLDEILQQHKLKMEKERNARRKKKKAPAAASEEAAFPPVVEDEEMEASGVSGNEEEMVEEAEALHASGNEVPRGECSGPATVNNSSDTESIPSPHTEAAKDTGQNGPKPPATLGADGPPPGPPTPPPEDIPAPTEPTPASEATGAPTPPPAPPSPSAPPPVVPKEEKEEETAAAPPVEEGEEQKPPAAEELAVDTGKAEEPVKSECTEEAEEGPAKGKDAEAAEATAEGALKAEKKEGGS

Assay [1] addresses GST-SMRT (Hu SMRT(1-900) fused to GST, from pGEX-6p-1) (human) (UniProt Q9Y618). As to the kind of experiment: GST pull-down (told in the discussion of the co-transfection experiment).
Assay [2] has the same target. The assay is described as follows: GST pull-down of 35S-labeled in vitro translated C21 fragment by GST-SMRT(1-900).

No constants are given. Whether binding was seen depends on the method and setting. Binding seen in cells or lysates may run through a third protein. Some binding calls cover weakened binding; strength is not graded here.

B1: 21[δC] (protein, not shown: small tags and cut ends)
chain: MSISSDEVNFLVYRYLQESGFSHSAFTFGIKSHISQSNINGALVPPAALISIIQKGLQYVEAEVSINEDGTLFDGRPIESLSLIDAVMPDVVQTRQQAYRDKLAQQQAAAAAAAAAAASQQGSAKNGENTANGEENGAHTIANNHTDMMEVDGDVEIPPNKAVVLRGHESEVFICAWNPVSDLLASGSGDSTARIWNLSENSTSGSTQLVLRHCIREGGQDVPSNKDVTS
modifications: 35S-methionine label
With B1, the binding entry in assay [1] and in assay [2] was “binds” in each case.
